Test [1] concerns the target T1, endogenous RARα (mouse (endogenous in TT2 ES cells)) (UniProt P11416).
T1 sequence: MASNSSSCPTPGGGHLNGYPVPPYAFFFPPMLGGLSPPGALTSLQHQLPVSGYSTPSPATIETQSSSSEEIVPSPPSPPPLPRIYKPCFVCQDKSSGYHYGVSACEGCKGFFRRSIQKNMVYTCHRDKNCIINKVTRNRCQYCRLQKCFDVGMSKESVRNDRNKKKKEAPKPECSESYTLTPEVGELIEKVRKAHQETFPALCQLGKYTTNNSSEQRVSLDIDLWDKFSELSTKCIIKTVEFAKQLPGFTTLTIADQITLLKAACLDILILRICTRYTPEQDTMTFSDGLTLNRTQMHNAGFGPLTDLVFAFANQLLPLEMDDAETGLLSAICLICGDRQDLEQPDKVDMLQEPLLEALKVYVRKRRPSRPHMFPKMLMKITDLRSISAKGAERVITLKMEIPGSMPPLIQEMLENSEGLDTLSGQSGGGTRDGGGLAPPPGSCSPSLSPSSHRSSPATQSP
Briefly: co-IP.

By UniProt entry, the sequences of proteins in these tests, tags left out.
UniProt Q9QZL0: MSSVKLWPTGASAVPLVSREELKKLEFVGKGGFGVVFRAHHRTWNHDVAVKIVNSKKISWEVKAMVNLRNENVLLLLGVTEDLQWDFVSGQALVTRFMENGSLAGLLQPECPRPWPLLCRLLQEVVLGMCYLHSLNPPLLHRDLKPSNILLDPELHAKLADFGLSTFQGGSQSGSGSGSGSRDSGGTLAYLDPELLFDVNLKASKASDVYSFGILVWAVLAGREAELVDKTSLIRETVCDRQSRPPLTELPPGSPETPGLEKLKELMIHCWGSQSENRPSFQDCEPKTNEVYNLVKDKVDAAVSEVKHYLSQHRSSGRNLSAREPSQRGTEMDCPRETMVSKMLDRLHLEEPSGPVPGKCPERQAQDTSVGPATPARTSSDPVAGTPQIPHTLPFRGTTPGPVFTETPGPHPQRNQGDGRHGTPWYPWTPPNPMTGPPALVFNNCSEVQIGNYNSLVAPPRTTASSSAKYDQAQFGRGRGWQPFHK

In test [2] the target is 3xFlag-Wt Ripk3 expressed in Tet-On shCasp8 ES cells (mouse) (UniProt Q9QZL0). In words: co-IP.

No constants are given. Whether binding was seen depends on the method and setting. In cells and extracts the contact can be indirect. Some binding calls cover weakened binding; strength is not graded here.

Take “endogenous RIPK3 (from UniProt Q9QZL0 1-486)”: the binding entry in test [1] is on record as “binds”.

B1: endogenous RARα (protein, UniProt P11416 1-462)
chain: MASNSSSCPTPGGGHLNGYPVPPYAFFFPPMLGGLSPPGALTSLQHQLPVSGYSTPSPATIETQSSSSEEIVPSPPSPPPLPRIYKPCFVCQDKSSGYHYGVSACEGCKGFFRRSIQKNMVYTCHRDKNCIINKVTRNRCQYCRLQKCFDVGMSKESVRNDRNKKKKEAPKPECSESYTLTPEVGELIEKVRKAHQETFPALCQLGKYTTNNSSEQRVSLDIDLWDKFSELSTKCIIKTVEFAKQLPGFTTLTIADQITLLKAACLDILILRICTRYTPEQDTMTFSDGLTLNRTQMHNAGFGPLTDLVFAFANQLLPLEMDDAETGLLSAICLICGDRQDLEQPDKVDMLQEPLLEALKVYVRKRRPSRPHMFPKMLMKITDLRSISAKGAERVITLKMEIPGSMPPLIQEMLENSEGLDTLSGQSGGGTRDGGGLAPPPGSCSPSLSPSSHRSSPATQSP
For B1, the binding result in test [2] is “binds”.

Values taken from publication doi:10.1101/156901.
